PubChem BioAssay AID743255 (National Center for Advancing Translational Sciences (NCATS), 2014)
Out of some 390,000 compounds screened, about 910 (0.23%) were called active. The inconclusive results got no clear call from the source; some entries with a clear call stand among them for comparison. Calls follow the shape of the dose curve; as a rule, active = well fitted inhibition curve with a large enough effect; inconclusive = small, poorly fitted or top-dose-only effect; inactive = no such curve, though single readings can be large or run the other way. Potencies of inconclusive entries are doubtful fits and often do not repeat.

Protein sequences, listed by entry. Tags and fused reporters are not part of them. Lines headed by an entry give the natural chain unless they say otherwise; changes in a name come on top.
UniProt O94782: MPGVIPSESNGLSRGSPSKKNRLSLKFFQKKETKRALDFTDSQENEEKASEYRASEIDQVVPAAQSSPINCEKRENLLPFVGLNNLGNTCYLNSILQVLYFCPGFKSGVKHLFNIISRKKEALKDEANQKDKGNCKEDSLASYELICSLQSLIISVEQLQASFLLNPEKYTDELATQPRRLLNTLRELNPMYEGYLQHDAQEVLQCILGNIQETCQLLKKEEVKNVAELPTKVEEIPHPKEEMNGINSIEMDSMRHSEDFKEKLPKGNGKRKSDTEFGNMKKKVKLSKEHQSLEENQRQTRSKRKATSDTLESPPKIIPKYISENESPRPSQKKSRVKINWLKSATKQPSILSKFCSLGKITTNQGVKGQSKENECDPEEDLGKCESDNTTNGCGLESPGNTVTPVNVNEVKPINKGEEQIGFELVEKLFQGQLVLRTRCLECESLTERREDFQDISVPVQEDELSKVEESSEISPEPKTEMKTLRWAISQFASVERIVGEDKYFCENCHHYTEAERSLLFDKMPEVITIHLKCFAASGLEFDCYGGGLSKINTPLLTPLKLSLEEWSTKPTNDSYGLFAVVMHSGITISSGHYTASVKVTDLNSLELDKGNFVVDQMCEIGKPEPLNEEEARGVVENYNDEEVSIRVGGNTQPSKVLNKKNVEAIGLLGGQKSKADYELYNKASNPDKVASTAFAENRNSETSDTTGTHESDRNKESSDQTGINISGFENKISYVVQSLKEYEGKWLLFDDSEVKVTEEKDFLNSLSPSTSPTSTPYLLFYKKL

The compounds below were run against Ubiquitin carboxyl-terminal hydrolase 1 (Homo sapiens) (UniProt O94782) (assay: Inhibitors of USP1/UAF1: Primary Screen). Conditions: recombinant USP1/UAF1, Ub-Rhodamine cleavage fluorescence; activity change, negative = inhibition: at 57.1 µM (top of the series).
In short: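 1 nM enzyme complex + cpd, 15 min RT; start with Ub-Rho 150nM final; kinetic fluorescence ex 480/em 540, 6 reads q60 s. Buffer 50mM HEPES pH 7.8, 0.5mM EDTA, 0.1 mg/ml BSA, 1mM TCEP, 0.01% Tween-20.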
% is scaled to controls: 0 for no effect and ±100 for the full control effect; potency is read from the fitted curve at half-maximal effect.
Also: nearly all actives have a fitted effect of over 60% in size.

Q: Which Potency does the source give for `Cc1ccc(-c2nn(CCC#N)cc2C=C(C#N)C#N)cc1` here?
A: inconclusive: 0.708 µM [inhibitor, full curve, poor fit]

Q: How did the Potency turn out when `COc1ccc(N2CCN(c3nc4ccc(C(=O)c5ccccc5)cc4n4cnnc34)CC2)cc1` was run?
A: inconclusive: 15.8 µM [inhibitor, partial curve, poor fit]

Q: `Cc1cccc(C)c1NC(=O)NC1(C(=O)N2CCN3CCCC3C2)CCCCC1` (stereo not drawn) was tested. Which Potency did it give?
A: inconclusive: 28.2 µM [inhibitor, partial curve]

Q: With `COc1ccc(C(=O)n2nnc3ccccc32)cc1OC` as the compound, how does the “activity change, negative = inhibition” value read?
A: inactive: -5.26%

Q: With `NC(=O)c1ccccc1NC(=O)CS(=O)(=O)Cc1ccccc1` as the compound, how does the “activity change, negative = inhibition” value read?
A: inactive: -12.9%

Q: With `CCOc1ccc(C(=O)/C=C/c2cn(CC(O)CN3CCc4ccccc43)c3ccccc23)cc1` (stereo not drawn) as the compound, how does the Potency read?
A: inconclusive: 31.6 µM [inhibitor, partial curve]

Q: For `O=[N+]([O-])c1cccc(-c2c(-c3ccccc3)ncc3cc(F)ccc23)c1`, which Potency is on record?
A: inconclusive: 63.1 µM [inhibitor, single point]

Q: For `COC(=O)c1cccnc1-n1c(=O)c2cccnc2n(CC(=O)Nc2cccc(C)c2)c1=O`, which Potency is on record?
A: inconclusive: 0.355 µM [inhibitor, full curve, poor fit]

Q: `COc1ccc(S(=O)(=O)N2CCCC2C(=O)Nc2ccc(O)cc2)cc1` (stereo not drawn) was tested. Which Potency did it give?
A: inconclusive: 20 µM [inhibitor, partial curve]

Q: `O=c1[nH]c(Nc2ccccc2Cl)cc2ccccc12` was tested. Which Potency did it give?
A: active: 14.1 µM

Q: With `COc1ccccc1CNS(=O)(=O)c1ccc2c(c1)NC(=O)CC(=O)N2` as the compound, how does the Potency read?
A: inconclusive: 39.8 µM [inhibitor, partial curve, poor fit]

Q: With `COc1ccc(NC(=O)c2cccc([N+](=O)[O-])c2)cc1` as the compound, how does the Potency read?
A: inconclusive: 7.94 µM [inhibitor, partial curve]

Q: `CCc1nnc2n1N=C(c1ccc(Cl)cc1Cl)CS2` was tested. Which Potency did it give?
A: inconclusive: 6.31 µM [inhibitor, partial curve, poor fit]

Q: How did the “activity change, negative = inhibition” value turn out when `COc1cccc(CNC(=O)c2nn(-c3ccc(C)cc3)c(=O)c3c2c2ccccc2n3C)c1` was run?
A: inactive: -9.72%

Q: With `CC(=O)c1cccc(NC(=S)NCc2ccccc2)c1` as the compound, how does the “activity change, negative = inhibition” value read?
A: inactive: -14.3%

Q: How did the “activity change, negative = inhibition” value turn out when `COc1ccc(Nc2nc(N)c3cc(OC)c(OC)cc3n2)cc1` was run?
A: inactive: 1.73%

Q: `CC(NC(=O)Cn1c(=O)oc2cc(S(=O)(=O)NCc3ccccc3)ccc21)c1ccccc1` (stereo not drawn) was tested. Which “activity change, negative = inhibition” value did it give?
A: inactive: -22.1%

Q: `CC(C)(C)C1=CC(=O)C(N2CCOCC2)=CC1=O` was tested. Which Potency did it give?
A: inconclusive: 6.31 µM [inhibitor, full curve, poor fit]

Q: `Cc1nn(-c2ccccc2)c(Cl)c1/C=C1\SC(=S)N(CCCCCC(=O)O)C1=O` was tested. Which Potency did it give?
A: inconclusive: 35.5 µM [inhibitor, partial curve, poor fit]

Q: Which “activity change, negative = inhibition” value does the source give for `O=C(CSc1nc(=O)n(CCN2CCOCC2)c2c1CCC2)Nc1ccccc1` here?
A: inactive: -22.6%

Q: `COC(=O)CN1C(=O)N/C(=C/c2ccc(OC)c(C)c2OC)C1=O` was tested. Which Potency did it give?
A: inconclusive: 2.51 µM [inhibitor, full curve]

Q: How did the Potency turn out when `N#CC(C#N)=Cc1cccn1-c1ccc(S(N)(=O)=O)cc1` was run?
A: inconclusive: 7.08 µM [inhibitor, single point]

Q: How did the Potency turn out when `O=C1C=C(Nc2ccc(F)cc2)c2ccccc2C1=O` was run?
A: active: 25.1 µM

Q: With `Cn1c(=O)c2c(ncn2CC(=O)Nc2cccc(Cl)c2Cl)n(C)c1=O` as the compound, how does the Potency read?
A: inconclusive: 5.01 µM [inhibitor, partial curve, poor fit]

Q: For `CC(=O)c1ccc(NC(=O)c2sc(-n3nc(C)c(Cc4ccccc4)c3C)nc2C)cc1`, which “activity change, negative = inhibition” value is on record?
A: inactive: 1.63%

Q: With `Cc1cccc(C)c1-n1cccc1/C=C1/C(=N)N2C(=NC1=O)SN=C2S(C)(=O)=O` as the compound, how does the “activity change, negative = inhibition” value read?
A: inactive: -18.3%

Q: Which Potency does the source give for `CCN1C(=O)[C@H]2[C@@H](c3ccc(-c4ccc(OC)cc4)cc3)N[C@@](C)(C(=O)OC)[C@H]2C1=O` here?
A: inconclusive: 12.6 µM [inhibitor, partial curve, poor fit]

Q: Which Potency does the source give for `O=C(CCNC(=O)OCC1c2ccccc2-c2ccccc21)NOCc1ccccc1` here?
A: inconclusive: 50.1 µM [inhibitor, partial curve, poor fit]

Q: Which Potency does the source give for `CCN(CC)c1ccc(NC(=O)/C=C\c2ccccc2Cl)cc1` here?
A: inconclusive: 0.631 µM [inhibitor, full curve, poor fit]

Q: How did the Potency turn out when `CC(=O)c1ccc(NC(=O)CN2c3cccc4cccc(c34)S2(=O)=O)cc1` was run?
A: inconclusive: 7.08 µM [inhibitor, single point]

Q: For `O=c1c2c(nc3n1CCCCC3)-c1ccccc1CC21CCCCC1`, which Potency is on record?
A: inconclusive: 25.1 µM [inhibitor, partial curve]

Q: Which Potency does the source give for `CCN1CC=C2C(C#N)=C(N)C(C#N)(C#N)[C@H](c3ccoc3)[C@H]2C1` here?
A: inconclusive: 39.8 µM [inhibitor, partial curve]

Q: `CCCN(Cc1cc2cc(C)ccc2[nH]c1=O)C(=O)c1ccccn1` was tested. Which Potency did it give?
A: inconclusive: 14.1 µM [inhibitor, partial curve, poor fit]

Q: For `CC(=O)c1ccc(N2CCN(S(=O)(=O)c3ccc4c(c3)C(C)(C)C(=O)N4)CC2)cc1`, which Potency is on record?
A: inconclusive: 5.62 µM [inhibitor, partial curve]

Q: How did the “activity change, negative = inhibition” value turn out when `Oc1ccc(Nc2nc(-c3ccccc3O)nc3ccccc23)cc1` was run?
A: inactive: -24.8%

Q: `CCOc1ccc(CNC(=O)c2ccccc2NC(=O)C2=CSCCO2)cc1` was tested. Which “activity change, negative = inhibition” value did it give?
A: inactive: -19.5%

Q: `CCCCCCSc1ccc([C@H]2N[C@@](Cc3ccccc3)(C(=O)OC)[C@H]3C(=O)N(C)C(=O)[C@@H]23)cc1` was tested. Which Potency did it give?
A: inconclusive: 0.0316 µM [inhibitor, full curve]

Q: `COc1ccc(CC(=O)OCc2csc(CC(=O)Nc3ccc(C)cc3)n2)cc1` was tested. Which Potency did it give?
A: inconclusive: 3.98 µM [inhibitor, partial curve]

Q: `COc1ccccc1N1CCN(CC(=O)Nc2ccccc2C(=O)NCCc2ccccc2)CC1` was tested. Which Potency did it give?
A: inconclusive: 56.2 µM [inhibitor, partial curve, poor fit]

Q: `COc1cc(NC(=O)CSc2ncccc2C(=O)OC(C)C)cc(OC)c1` was tested. Which Potency did it give?
A: inconclusive: 0.794 µM [inhibitor, full curve, poor fit]

Q: How did the Potency turn out when `O=C1NC(c2cccc3ccccc23)Nc2ccc(Cl)cc21` (stereo not drawn) was run?
A: inconclusive: 70.8 µM [inhibitor, partial curve, poor fit]

Q: For `CCOc1ccccc1NC(=O)c1c(NC(=O)c2cccc(C)c2)sc2c1CCC2`, which “activity change, negative = inhibition” value is on record?
A: inactive: -15.7%

Q: `S=C(NNc1ccnc2cc(Cl)ccc12)Nc1ccccc1Cl` was tested. Which Potency did it give?
A: inconclusive: 44.7 µM [inhibitor, partial curve]

Q: `CCOc1cccc2c1N[C@@H](c1ccc(C(=O)O)cc1)[C@H]1CC=C[C@@H]21` was tested. Which Potency did it give?
A: inconclusive: 31.6 µM [inhibitor, partial curve]

Q: `Cc1sc2ncnc(Nc3ccc(N4CCOCC4)cc3)c2c1-c1ccccc1` was tested. Which Potency did it give?
A: inconclusive: 39.8 µM [inhibitor, partial curve]

Q: For `S=c1[nH]nc(-c2ccccc2)n1/N=C/c1cccc(Br)c1`, which Potency is on record?
A: inconclusive: 17.8 µM [inhibitor, partial curve]

Q: With `CCCCN1CCc2nc(Nc3ccc(OC)cc3OC)ncc2C1` as the compound, how does the Potency read?
A: inconclusive: 5.62 µM [inhibitor, single point]

Q: For `CCN(CC)C(=O)CC(c1ccc2c(c1)OCO2)c1c(OC)cc(OC)c2ccc(=O)oc12` (stereo not drawn), which Potency is on record?
A: inconclusive: 2.24 µM [inhibitor, full curve, poor fit]

Q: For `COC(=O)N=Nc1c(O)n(Cc2ccccc2)c2ccccc12`, which “activity change, negative = inhibition” value is on record?
A: inactive: -21.4%

Q: How did the “activity change, negative = inhibition” value turn out when `Cc1ccc(CN(Cc2ccco2)C(=O)c2ccc(OCC(C)C)cc2)cc1` was run?
A: inactive: -28.8%

Q: Which “activity change, negative = inhibition” value does the source give for `O=C(CSc1nc2nn(-c3ccccc3)c(=O)c-2c2n1CCCCC2)Nc1ccc(F)c(F)c1` here?
A: inactive: -15.4%

Q: Which Potency does the source give for `COC(C(=O)C(O)C(C)O)C1Cc2cc3cc(OC4CC(OC5CC(O)C(O)C(C)O5)C(O)C(C)O4)c(C)c(O)c3c(O)c2C(=O)C1OC1CC(OC2CC(OC3CC(O)C(OC)C(C)O3)C(O)C(C)O2)C(O)C(C)O1` (stereo not drawn) here?
A: inconclusive: 31.6 µM [inhibitor, single point]

Q: With `O=C(O)c1ccc(NC2=C(n3nnc4ccccc43)C(=O)c3ccccc3C2=O)cc1` as the compound, how does the Potency read?
A: active: 15.8 µM

Q: With `CCOc1ccc(NC(=O)c2c[nH]n3c(=O)cc(C4CCN(C(=O)OC(C)(C)C)CC4)nc23)cc1` as the compound, how does the Potency read?
A: inconclusive: 44.7 µM [inhibitor, partial curve]

Q: For `COc1ccc(/C=N\NC(=O)c2cc(O)c(O)c(O)c2)cc1COc1ccc(C(=O)OCC(C)C)cc1`, which Potency is on record?
A: inconclusive: 89.1 µM [inhibitor, partial curve, poor fit]

Q: With `O=C(Cc1cccc(NC(=O)C2CCN(C(=O)CCc3ccccc3)CC2)c1)Nc1cccc(C(=O)N2CCOCC2)c1` as the compound, how does the Potency read?
A: inconclusive: 89.1 µM [inhibitor, partial curve, poor fit]

Q: Which Potency does the source give for `FC(F)(F)c1cc(-c2ccco2)nc(NCc2cccs2)n1` here?
A: inconclusive: 10 µM [inhibitor, full curve, poor fit]

Q: For `CC(C)OCCCn1c(SCC(=O)c2ccccc2)nc2c(sc3ccccc32)c1=O`, which Potency is on record?
A: inconclusive: 44.7 µM [inhibitor, single point]

Q: `O=C(NC1CCCCCC1)c1cc2c(=O)n3ccccc3nc2s1` was tested. Which Potency did it give?
A: inconclusive: 5.01 µM [inhibitor, partial curve]

Q: For `CCOC(=O)c1cccc(NC(=O)c2cc3ccccn3n2)c1`, which Potency is on record?
A: inconclusive: 0.398 µM [inhibitor, full curve, poor fit]

Q: For `CCCCOc1ccc(C2=NC(c3ccncc3)=Nc3ccc(OCC)cc3N2)cc1`, which Potency is on record?
A: inconclusive: 50.1 µM [inhibitor, single point]

Q: `COc1ccc(NC(=O)C(Cc2ccccc2)NS(=O)(=O)c2ccc3c(c2)CCC(=O)N3)c(OC)c1` (stereo not drawn) was tested. Which Potency did it give?
A: inconclusive: 8.91 µM [inhibitor, partial curve]

Q: `O=[N+]([O-])c1c(NCc2ccco2)ccc2nonc12` was tested. Which Potency did it give?
A: inconclusive: 56.2 µM [inhibitor, partial curve, poor fit]
